PMC7156099
No constants are given. Whether binding was seen depends on the method and setting. Binding seen in cells or lysates may run through a third protein.

T1: AKAP1 (human (endogenous in A549 and U2OS)) (UniProt Q92667)
T1 sequence: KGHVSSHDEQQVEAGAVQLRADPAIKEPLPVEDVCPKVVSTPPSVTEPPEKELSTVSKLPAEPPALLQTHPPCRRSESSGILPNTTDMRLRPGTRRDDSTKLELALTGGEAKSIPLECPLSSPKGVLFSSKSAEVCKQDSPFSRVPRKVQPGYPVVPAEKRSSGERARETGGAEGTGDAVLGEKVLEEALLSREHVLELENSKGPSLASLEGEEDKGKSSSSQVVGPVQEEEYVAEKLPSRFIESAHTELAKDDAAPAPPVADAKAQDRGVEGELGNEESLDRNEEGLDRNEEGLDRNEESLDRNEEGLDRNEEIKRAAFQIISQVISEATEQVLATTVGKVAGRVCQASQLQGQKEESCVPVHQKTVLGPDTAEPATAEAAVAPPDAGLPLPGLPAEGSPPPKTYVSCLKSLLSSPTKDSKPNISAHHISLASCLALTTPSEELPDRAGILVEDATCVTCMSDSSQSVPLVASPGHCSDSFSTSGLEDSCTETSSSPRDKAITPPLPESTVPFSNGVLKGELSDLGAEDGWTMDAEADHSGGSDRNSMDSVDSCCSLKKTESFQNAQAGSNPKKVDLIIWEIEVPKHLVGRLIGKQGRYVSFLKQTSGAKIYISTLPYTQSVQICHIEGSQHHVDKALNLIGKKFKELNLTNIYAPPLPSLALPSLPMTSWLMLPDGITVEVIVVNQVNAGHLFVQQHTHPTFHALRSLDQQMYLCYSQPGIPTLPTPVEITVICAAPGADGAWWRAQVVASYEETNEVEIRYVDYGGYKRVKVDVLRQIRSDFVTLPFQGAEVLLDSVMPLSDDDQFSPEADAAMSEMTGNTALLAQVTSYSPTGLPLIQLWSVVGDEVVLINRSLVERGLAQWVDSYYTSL

B1: SESN2 (protein, UniProt P58004 1-480)
chain: MIVADSECRAELKDYLRFAPGGVGDSGPGEEQRESRARRGPRGPSAFIPVEEVLREGAESLEQHLGLEALMSSGRVDNLAVVMGLHPDYFTSFWRLHYLLLHTDGPLASSWRHYIAIMAAARHQCSYLVGSHMAEFLQTGGDPEWLLGLHRAPEKLRKLSEINKLLAHRPWLITKEHIQALLKTGEHTWSLAELIQALVLLTHCHSLSSFVFGCGILPEGDADGSPAPQAPTPPSEQSSPPSRDPLNNSGGFESARDVEALMERMQQLQESLLRDEGTSQEEMESRFELEKSESLLVTPSADILEPSPHPDMLCFVEDPTFGYEDFTRRGAQAPPTFRAQDYTWEDHGYSLIQRLYPEGGQLLDEKFQAAYSLTYNTIAMHSGVDTSVLRRAIWNYIHCVFGIRYDDYDYGEVNQLLERNLKVYIKTVACYPEKTTRRMYNLFWRHFRHSEKVHVNLLLLEARMQAALLYALRAITRYMT
B2: Mios (protein, UniProt Q9NXC5 1-875)
chain: MSGTKPDILWAPHHVDRFVVCDSELSLYHVESTVNSELKAGSLRLSEDSAATLLSINSDTPYMKCVAWYLNYDPECLLAVGQANGRVVLTSLGQDHNSKFKDLIGKEFVPKHARQCNTLAWNPLDSNWLAAGLDKHRADFSVLIWDICSKYTPDIVPMEKVKLSAGETETTLLVTKPLYELGQNDACLSLCWLPRDQKLLLAGMHRNLAIFDLRNTSQKMFVNTKAVQGVTVDPYFHDRVASFYEGQVAIWDLRKFEKPVLTLTEQPKPLTKVAWCPTRTGLLATLTRDSNIIRLYDMQHTPTPIGDETEPTIIERSVQPCDNYIASFAWHPTSQNRMIVVTPNRTMSDFTVFERISLAWSPITSLMWACGRHLYECTEEENDNSLEKDIATKMRLRALSRYGLDTEQVWRNHILAGNEDPQLKSLWYTLHFMKQYTEDMDQKSPGNKGSLVYAGIKSIVKSSLGMVESSRHNWSGLDKQSDIQNLNEERILALQLCGWIKKGTDVDVGPFLNSLVQEGEWERAAAVALFNLDIRRAIQILNEGASSEKGDLNLNVVAMALSGYTDEKNSLWREMCSTLRLQLNNPYLCVMFAFLTSETGSYDGVLYENKVAVRDRVAFACKFLSDTQLNRYIEKLTNEMKEAGNLEGILLTGLTKDGVDLMESYVDRTGDVQTASYCMLQGSPLDVLKDERVQYWIENYRNLLDAWRFWHKRAEFDIHRSKLDPSSKPLAQVFVSCNFCGKSISYSCSAVPHQGRGFSQYGVSGSPTKSKVTSCPGCRKPLPRCALCLINMGTPVSSCPGGTKSDEKVDLSKDKKLAQFNNWFTWCHNCRHGGHAGHMLSWFRDHAECPVSACTCKCMQLDTTGNLVPAETVQP

Molecular target: T1, AKAP1 (human (endogenous in A549 and U2OS))
Assay: co-IP; endogenous AKAP1 immunoprecipitated with anti-AKAP1 antibody (D9C5) and protein A/G agarose from lysate of mitochondria (0.3% NP40, 150 mM NaCl, 50 mM Tris pH 7.5) of U2OS cells; immunoblot

Binder | binding
B1 | no binding
B2 | no binding
